Experimental data published in article PMC8092316.

Molecular target: mCherry-tagged Pas2 (Cryptococcus neoformans)
Assay: affinity purification with mass spectrometry; CoIP/MS with mCherry-tagged Pas2 as bait from C. neoformans protein extracts; cells under normoxia and hypoxia

binding: binds
B1: Cir1 (protein, UniProt Q09RL2 1-952)
chain: MPETNTSAPQDNEHESSIGSRFENRFGPGWRVGFDNSNERGGVDEDAAEDSPPPRRESPGTSDKEIEAAEIETPNVERDELESDYGESVQQQGHVDSEEELDQKELIRRAAARRRHQNKKEEQGSDGQPSAKKRKPLAPANASSLPSPPPSTTAPASAHPPAGTCPGDGRCNGAGGKAGCEGCPTYNNSIAAGLVSASGSHAASHPPNVSEGIERPVRSIYDREHRPYGFDRFMENSMGNGLAPRALPRQSPDQRQAHPSPVTTQPLMHPTSEKGTPTRFSPDSDAETAAAPSGNGSGLAATPVGMSCRNCGTSTTPLWRRDEEGRPQCNACGLYHKLHGVPRPVAMKKTVIKRRKRVPAVGSTSTGGRGTNAELPSPASAPASVPTVTAPPPHVAPPLDDKAHRASPPFGHRAPQPHSEHRINRPLGPEAYGLAGRYGKPSTPAGMNLPGSTSTSSLNIPERKKPWWQEGREGRDREKEEKDREAREREGLAAEALLTMAPAANGGPSPEKRVEKSSGAGPVPASQSRRASIDVDMADNEPRGTKRKNEEEPRDVRDPRAPMSLGLHGMDRDRNRSKDRTFSHSPLISTDPRSGQPSNPHLPGSRLGQPPTSSASPYPATTQQGAPNRYSIYGPTTRDPLAGSSPYSFNASRYSNLHMRRDHSPSVGGAASKPNVLSPPRRASPAPTPDPRERFYPSPSAASAGSAPGSANAAMAGYGHYSMSRRELQEHREQLKEGKRWLEAMMAKTDKMLHMVENKMALTVEMSSGPSVVGPGDRPSLSSNASPVPPPAAIHKMSDDWEFEERERQRQKEIQRLEQEREMDRVEREKRERERERPGSYEDVRGRPRDKSEAERNRDILLASRRVSAVSPNPATRAATASRESASSSNGSAPQQGEKSHGGTNGVSGGKREGSQWDGEPVMSGVPLPRREQQNGIGSRLGRGLWSFDVRS

No constants are given. Whether binding was seen depends on the method and setting. In cells and extracts the contact can be indirect. These calls come from enrichment with a bait or labelling near it, and not all partners need be listed.
